Test results: PubChem BioAssay AID330 (DTP/NCI, 2004)
The list is a part of this screen's results and no random one: it is rich in T/C values a quarter to a half above the control, in often repeated tests (any T/C) and in doses without a T/C. Further doses and runs are listed elsewhere. T/C is the treated group as % of the vehicle group. Some entries give survivors of the animals treated and no T/C: the source holds a T/C of zero for them, seemingly a mark for toxic or unscored doses. Some survivor counts are full or nearly so, which does not show that the dose was tolerated: the source hardly ever lists a survival T/C far under the control, and the zero likely stands for such cases as well. Survivors were counted at the toxicity check, usually on the fifth day, unless a day is given; later deaths do not show. Schedule codes are those of the source, read here as Q, the interval in days (D) or hours (H), X, the number of doses. Some doses were run more than once; their values stand side by side, smallest first. For survival time, the PubChem record calls one and a half times the control and up active, and a quarter to a half above the control has no call in these data; cut-offs in other NCI protocols can differ. Some T/C values carry the count of animals alive at the toxicity check (mostly the fifth day); where none is given, no animal had died by that day.

Test system: P388 leukemia ip, CD2F1 mice, survival T/C
Assay: NCI In Vivo Anticancer Drug Screen. Data for tumor model P388 Leukemia (intraperitoneal) in CD2F1 (CDF1) mice
Conditions: T/C endpoint: median survival time, higher T/C = longer survival
[1] = dose: 50.0 mg/kg/injection, schedule: Q01DX009 (ip), vehicle: saline
[2] = dose: 100.0 mg/kg/injection, schedule: Q01DX009 (ip), vehicle: saline with Tween-80

With `O=[N+]([O-])c1ccc2c(c1)N=Cc1ccccc1NCCNc1ccccc1C=N2` as the compound, how does the survivor count [1] read?
Its survivor count is 6 of 6.

Which T/C (dose: 50.0 mg/kg/injection, schedule: Q04DX003 (ip), vehicle: saline) does the source give for `CS(=O)(=O)Nc1ccc(Nc2c3ccccc3nc3cc(Cl)ccc23)cc1` here?
Its T/C is 145 % of control.

What does the source list for `CC(NCCc1ccccc1)C1CCOC1=O` (configuration not stated)?
survivor count (dose: 100.0 mg/kg/injection, schedule: Q01DX009 (ip), vehicle: saline): 3 of 6 and 5 of 6; survivor count (dose: 200.0 mg/kg/injection, schedule: Q01DX009 (ip), vehicle: saline): 0 of 6 and 1 of 6

What does the source list for `COC(=O)[C@@H]1c2cc3c(c(O)c2[C@@H](OC2OC(C)C(OC)C(C)(OC)C2OC)C[C@]1(C)O)C(=O)c1c(O)cc2c(c1C3=O)O[C@H]1O[C@]2(C)[C@H](O)[C@@H](N(C)C)[C@@H]1O` (some centres not stated)?
T/C (dose: 0.25 mg/kg/injection, schedule: Q01DX009 (ip), vehicle: saline + alcohol): 129 and 133 % of control; T/C (dose: 0.25 mg/kg/injection, schedule: Q01DX009 (ip), vehicle: saline): 127 % of control; T/C (dose: 0.5 mg/kg/injection, schedule: Q01DX009 (ip), vehicle: saline + alcohol): 132 and 140 % of control [5 of 6 alive]; T/C (dose: 0.5 mg/kg/injection, schedule: Q01DX009 (ip), vehicle: saline): 147 % of control; T/C (dose: 0.5 mg/kg/injection, schedule: Q04DX003 (ip), vehicle: saline): 131 % of control; survivor count (dose: 1.0 mg/kg/injection, schedule: Q01DX009 (ip), vehicle: saline + alcohol): 6 of 6; T/C (dose: 1.0 mg/kg/injection, schedule: Q04DX003 (ip), vehicle: other): 138 % of control; T/C (dose: 1.0 mg/kg/injection, schedule: Q04DX003 (ip), vehicle: saline): 127 % of control; T/C (dose: 1.2 mg/kg/injection, schedule: Q04DX003 (ip), vehicle: water): 126 % of control; survivor count (dose: 2.0 mg/kg/injection, schedule: Q01DX009 (ip), vehicle: other): 5 of 6; survivor count (dose: 2.0 mg/kg/injection, schedule: Q01DX009 (ip), vehicle: saline + alcohol): 4 of 6 and 6 of 6; survivor count (dose: 2.0 mg/kg/injection, schedule: Q01DX009 (ip), vehicle: saline): 6 of 6; survivor count (dose: 2.0 mg/kg/injection, schedule: Q01DX010 (ip), vehicle: saline): 6 of 6; T/C (dose: 2.0 mg/kg/injection, schedule: Q04DX003 (ip), vehicle: other): 138 % of control; T/C (dose: 2.0 mg/kg/injection, schedule: Q04DX003 (ip), vehicle: saline): 125 % of control; T/C (dose: 2.0 mg/kg/injection, schedule: Q04DX003 (ip), vehicle: water): 137 % of control; survivor count (dose: 4.0 mg/kg/injection, schedule: Q01DX010 (ip), vehicle: saline): 0 of 6; survivor count (dose: 4.0 mg/kg/injection, schedule: Q04DX003 (ip), vehicle: clinical formulation): 8 of 8; T/C (dose: 4.0 mg/kg/injection, schedule: Q04DX003 (ip), vehicle: other): 138 % of control; survivor count (dose: 4.0 mg/kg/injection, schedule: Q04DX003 (ip), vehicle: saline): 6 of 6; T/C (dose: 250.0 micrograms/kg/injection, schedule: Q01DX009 (ip), vehicle: other): 130 % of control; T/C (dose: 250.0 micrograms/kg/injection, schedule: Q01DX009 (ip), vehicle: saline): 130 % of control; T/C (dose: 375.0 micrograms/kg/injection, schedule: Q01DX009 (ip), vehicle: saline): 130 % of control; T/C (dose: 500.0 micrograms/kg/injection, schedule: Q01DX009 (ip), vehicle: other): 146 % of control; T/C (dose: 500.0 micrograms/kg/injection, schedule: Q01DX009 (ip), vehicle: saline): 137 % of control; T/C (dose: 750.0 micrograms/kg/injection, schedule: Q01DX009 (ip), vehicle: saline): 144 % of control; T/C (dose: 750.0 micrograms/kg/injection, schedule: Q04DX003 (ip), vehicle: saline): 130 % of control; T/C (dose: 1000.0 micrograms/kg/injection, schedule: Q01DX009 (ip), vehicle: other): 128 % of control; T/C (dose: 1000.0 micrograms/kg/injection, schedule: Q04DX003 (ip), vehicle: saline): 133 % of control; T/C (dose: 1500.0 micrograms/kg/injection, schedule: Q04DX003 (ip), vehicle: saline): 130 % of control; survivor count (dose: 2000.0 micrograms/kg/injection, schedule: Q01DX009 (ip), vehicle: other): 6 of 6; survivor count (dose: 2000.0 micrograms/kg/injection, schedule: Q01DX009 (ip), vehicle: saline): 6 of 6; T/C (dose: 2000.0 micrograms/kg/injection, schedule: Q04DX003 (ip), vehicle: saline): 130 % of control

With `COc1ccc2cc1Oc1ccc(cc1)C[C@H]1c3cc(c(OC)cc3CCN1C)Oc1c(OC)c(OC)cc3c1[C@H](C2)N(C)CC3` as the compound, how does the survivor count (dose: 100.0 mg/kg/injection, schedule: Q01DX009 (ip), vehicle: other) read?
Its survivor count is 6 of 6.

What about the survivor count (dose: 200.0 mg/kg/injection, schedule: Q01DX009 (ip), vehicle: other) of the same compound?
Its survivor count is 1 of 6.

With `O=[N+]([O-])c1c[nH]n2c([N+](=O)[O-])cnc12` as the compound, how does the survivor count (dose: 3.13 mg/kg/injection, schedule: Q01DX009 (ip), vehicle: other) read?
The survivor count was 6 of 6.

And the survivor count (dose: 25.0 mg/kg/injection, schedule: Q01DX009 (ip), vehicle: other)?
The survivor count was 3 of 6.

What about the survivor count (dose: 50.0 mg/kg/injection, schedule: Q01DX009 (ip), vehicle: other) of the same compound?
Its survivor count is 1 of 6.

Which survivor count (dose: 400.0 mg/kg/injection, schedule: Q01DX001 (ip), vehicle: Klucel (hydroxypropylcellulose) (HPC)) does the source give for `CC1=NCc2c(nnn2C)N1` here?
The survivor count was 2 of 6.

For `COc1ccc(S(=O)(=O)F)cc1NC(C)=O`, which survivor count (dose: 240.0 mg/kg/injection, schedule: Q01DX005 (ip), vehicle: Klucel (hydroxypropylcellulose) (HPC)) is on record?
The survivor count was 1 of 6.

What does the source list for `O=C1C2C3C=CC(C2C(=O)N1CN1CCSCC1)C1C2C(=O)N(CN4CCSCC4)C(=O)C2C31` (configuration not stated)?
T/C [2]: 148 % of control; survivor count (dose: 400.0 mg/kg/injection, schedule: Q01DX009 (ip), vehicle: saline with Tween-80): 6 of 6

Which survivor count (dose: 100.0 mg/kg/injection, schedule: Q01DX005 (ip), vehicle: saline with Tween-80) does the source give for `CC(C)=CC(=O)Sc1ccccc1` here?
Its survivor count is 0 of 6.

What about the survivor count (dose: 200.0 mg/kg/injection, schedule: Q01DX005 (ip), vehicle: saline with Tween-80) of the same compound?
Its survivor count is 0 of 6.

For `CCC1(C)CCC2(C)C(CCC3C4(C)CCCC32OC4=O)C1` (configuration not stated), which survivor count (dose: 50.0 mg/kg/injection, schedule: Q01DX005 (ip), vehicle: Klucel (hydroxypropylcellulose) (HPC)) is on record?
Its survivor count is 2 of 5.

Which survivor count (dose: 25.0 mg/kg/injection, schedule: Q01DX009 (ip), vehicle: saline with Tween-80) does the source give for `C=CC(=NC(C)(C)C)Nc1c(Cl)cccc1Cl` here?
Its survivor count is 3 of 6.

What about the survivor count (dose: 50.0 mg/kg/injection, schedule: Q01DX009 (ip), vehicle: saline with Tween-80) of the same compound?
Its survivor count is 1 of 6.

And the survivor count [1]?
Its survivor count is 1 of 6.

What about the survivor count [2] of the same compound?
The survivor count was 0 of 6.

What about the survivor count (dose: 200.0 mg/kg/injection, schedule: Q01DX009 (ip), vehicle: saline with Tween-80) of the same compound?
Its survivor count is 0 of 6.

With `CCOC(=O)NNCC(=O)OCc1ccccc1` as the compound, how does the survivor count (dose: 12.5 mg/kg/injection, schedule: Q01DX009 (ip), vehicle: other) read?
The survivor count was 6 of 6.

What does the source list for `O=C(NC1=C(N2CC2)C(=O)C(NC(=O)OCCO)=C(N2CC2)C1=O)OCCO`?
T/C (dose: 0.18 mg/kg/injection, schedule: Q01DX009 (ip), vehicle: saline): 131 % of control; T/C (dose: 0.37 mg/kg/injection, schedule: Q01DX009 (ip), vehicle: saline): 140 % of control; T/C (dose: 0.75 mg/kg/injection, schedule: Q01DX009 (ip), vehicle: saline): 132 % of control

With `CN(C)c1ccc(/C=C/C2=[N+](C)c3ccccc3C2(C)C)cc1` as the compound, how does the survivor count (dose: 0.15 mg/kg/injection, schedule: Q01DX009 (ip), vehicle: saline) read?
Its survivor count is 4 of 6.

What about the survivor count (dose: 0.31 mg/kg/injection, schedule: Q01DX009 (ip), vehicle: saline) of the same compound?
Its survivor count is 0 of 6.

What about the survivor count (dose: 0.62 mg/kg/injection, schedule: Q01DX009 (ip), vehicle: saline) of the same compound?
The survivor count was 2 of 6.

And the survivor count (dose: 1.25 mg/kg/injection, schedule: Q01DX009 (ip), vehicle: saline)?
The survivor count was 0 of 6.

What about the survivor count (dose: 2.5 mg/kg/injection, schedule: Q01DX009 (ip), vehicle: saline) of the same compound?
Its survivor count is 1 of 6.

And the survivor count (dose: 5.0 mg/kg/injection, schedule: Q01DX009 (ip), vehicle: saline)?
The survivor count was 0 of 6.

And the survivor count (dose: 10.0 mg/kg/injection, schedule: Q01DX009 (ip), vehicle: saline)?
The survivor count was 0 of 6.

What about the survivor count (dose: 20.0 mg/kg/injection, schedule: Q01DX009 (ip), vehicle: saline) of the same compound?
The survivor count was 0 of 6.

`CC(=O)NC1=C(N2CC2)C(=O)C(NC(C)=O)=C(N2CC2)C1=O` was tested. Which T/C (dose: 250.0 micrograms/kg/injection, schedule: Q01DX010 (ip), vehicle: saline) did it give?
Its T/C is 145 % of control.
